Results on 58 compounds are retold here after PubChem BioAssay AID1487 (National Center for Advancing Translational Sciences (NCATS), 2009).

As usually defined, the AC50 is the midpoint of the concentration-response curve, whichever way the signal moves.

The other results are listed elsewhere or left out. These are further read-outs of the screen, such as a control signal, another cell line or another target. No call is given for them. Most of these compounds were active or inconclusive in the main read-out, so they are no random draw. Potencies come from curve fits of mixed quality, noted in brackets.

The nature of the assay: qHTS Assay for Modulators of Lamin A Splicing. Conditions: HeLa LMNA splicing GFP/RFP minigene ratio, 48 h. Put shortly:
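S3 HeLa cells stably expressing lamin A-EGFP splicing minigene plus DsRed2, 600 cells/well, 48 h compound exposure at 37C. Laser-scanning cytometry; analysed as GFP (500-530 nm)/RFP (575-640 nm) total intensity ratio; 0.5% DMSO vehicle.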

Where [1] appears, read: measured here: RFP viability control channel.
Where [2] appears, read: measured here: GFP splicing reporter channel.

As for `CCc1nnc(NC(=O)c2ccc(Cl)c(S(=O)(=O)N3CCc4ccccc4C3)c2)s1`, the half-maximal activity concentration (AC50) under setting [1] is 3.55 µM [rising, partial curve].

With `Nc1ccc2c(c1)OC1(CCCCC1)O2`, under setting [1], the AC50 is 17.8 µM [falling, single point].

For `CC(C)c1ccc(Nc2ncnc3onc(-c4ccc(F)cc4)c23)cc1`, under setting [1], the AC50 is 35.5 µM [rising, single point].

Turning to `COc1ccc(NC(=O)c2cc3c(=O)n(C)c4ccccc4c3n2C)cc1OC`, under setting [1], the AC50 was 22.4 µM [rising, single point].

Consider `O=C(/C=C/c1ccco1)Nc1nc(-c2ccccc2)cs1`, for which the AC50 was 11.2 µM [rising, partial curve] under setting [2] and 12.6 µM [rising, partial curve] under setting [1].

As for `CCc1nnc(NC(=O)CSc2nc(-c3ccccc3)cc(-c3ccc(F)cc3)c2C#N)s1`, the AC50 by setting is: under setting [2], 3.55 µM [falling, full curve]; under setting [1], 3.98 µM [falling, full curve].

As for `CSCC[C@H](NC(=O)OC(C)(C)C)c1nnc(SCc2ccc(F)cc2)o1`, the half-maximal activity concentration (AC50) under setting [1] was 25.1 µM [rising, single point].

In the case of `Cc1c(C(=O)N2CCOCC2)[nH]c2ccc(OCc3ccccc3)cc12`, under setting [1], the AC50 is 31.6 µM [rising, single point].

Regarding `Cc1ccc(OCCNC(=O)c2cccc(Oc3ccc(C(F)(F)F)cc3[N+](=O)[O-])c2)cc1`, the AC50 runs as follows: under setting [2], 2.82 µM [rising, single point]; under setting [1], 2.51 µM [rising, full curve].

Regarding `Cc1cc(C(=O)N2CCN(c3cccc(C)c3C)CC2)c2c(C)nn(-c3ccccc3)c2n1`, the AC50 under setting [1] is 20 µM [rising, partial curve, poor fit].

Regarding `COC(=O)c1cccc(S(=O)(=O)N2CCC(c3nc4ccccc4o3)CC2)c1`, under setting [1], the AC50 is 15.8 µM [rising, single point].

Take `Cc1nc2ccccn2c1C(=O)N/N=C/c1ccc([N+](=O)[O-])o1`: the concentration at half-maximal activity (AC50) under setting [2] is 28.2 µM [falling, single point].

For `CC1(C)O[C@@H]1COc1c2ccoc2cc2oc(=O)ccc12`, the AC50 under setting [1] is 6.31 µM [rising, partial curve, poor fit].

Regarding `Cc1nn(Cc2ccc([N+](=O)[O-])cc2)c(=O)n1-c1ccc(Cl)cc1`, the AC50 under setting [1] is 0.02 µM [falling, partial curve, poor fit].

On to `Cc1cccc(OCC(=O)Nc2cc(-c3ccccc3F)nn2-c2ccccc2)c1`, for which the AC50 under setting [2] is 2.82 µM [rising, single point].

With `O=C(O)CCCCCNC(=O)c1cccc(Br)c1`, the concentration at half-maximal activity (AC50) under setting [1] is 35.5 µM [falling, single point].

With `N/C(=N\c1nc2ccccc2o1)NC(=O)c1cccc(Cl)c1`, the AC50 under setting [2] was 0.0794 µM [rising, full curve].

Regarding `N#Cc1c[nH]n2c(=O)c3c(nc12)CCC3`, under setting [2], the AC50 was 22.4 µM [rising, single point].

As to `CCOC(=O)N1CCN(C(=O)COc2cc(C)c(Cl)c(C)c2)CC1`, the AC50 is 28.2 µM [falling, partial curve] under setting [2] and 14.1 µM [falling, partial curve, poor fit] under setting [1].

On to `CCc1cc2c(NCC3CCCO3)nc(C)nc2s1` (centres undefined), for which the AC50 under setting [1] was 17.8 µM [rising, single point].

Consider `CC(C)NC(=O)N1CCN(S(=O)(=O)c2ccc3c(ccn3C)c2)CC1`, for which the AC50 under setting [2] was 0.316 µM [falling, full curve, poor fit].

With `CCOC(=O)c1cccc(NC(=O)/C=C/c2ccc3c(c2)OCO3)c1`, the AC50 by setting is: under setting [2], 8.91 µM [rising, partial curve]; under setting [1], 14.1 µM [rising, partial curve].

For `Cc1ccc(-c2nc(CSCC(=O)NCCCN3CCOCC3)c(C)o2)cc1`, the AC50 under setting [1] was 5.01 µM [rising, partial curve].

Regarding `COc1ccc(C(=O)NCc2cccnc2)cc1C(=O)NCc1cccnc1`, the AC50 under setting [2] was 0.00891 µM [falling, full curve, poor fit].

In the case of `Cc1cc(C)cc(OCc2ccc(C(=O)N3N=C(C(F)F)CC3(O)C(F)F)o2)c1` (centres undefined), under setting [1], the AC50 is 2.24 µM [rising, single point].

As for `Cc1cc(N(CCO)CCO)nc(-n2nc(C)cc2C)n1`, under setting [1], the half-maximal activity concentration (AC50) was 0.00355 µM [falling, full curve, poor fit].

For the compound `CNc1ccccc1C(C)(C)c1cc(-c2cc(C)cc(C)c2)no1`, under setting [1], the AC50 was 20 µM [rising, partial curve].

`Cc1c(C(=O)Nc2cccc(Cl)c2)sc2nc3n(c(=O)c12)N=C(c1cccc(Br)c1)CS3`: under setting [2], the AC50 was 0.501 µM [rising, full curve, poor fit].

Take `O=C(Nc1ccc([N+](=O)[O-])cc1)Nc1ccc2c(c1)OCCO2`: the AC50 under setting [1] was 35.5 µM [falling, partial curve].

On to `CCN(CC)S(=O)(=O)c1ccc(C(=O)NNc2nc(-c3ccccc3)c3cc(Br)ccc3n2)cc1`, for which the AC50 under setting [1] is 25.1 µM [rising, single point].

In the case of `CCOc1ccc(-c2cc(C(=O)Oc3ccc(C#N)cc3)no2)cc1`, the AC50 under setting [1] is 0.708 µM [rising, full curve, poor fit].

Turning to `O=C(CCS(=O)(=O)c1ccccc1)N(Cc1cccnc1)c1nc2ccc(Cl)cc2s1`, the AC50 runs as follows: under setting [2], 25.1 µM [falling, partial curve, poor fit]; under setting [1], 35.5 µM [falling, single point].

In the case of `COC(=O)C1=C(C)N(c2ccc(Cl)c(Cl)c2)C(=O)C1`, under setting [2], the AC50 is 17.8 µM [falling, single point].

As to `Cc1ccc(C)c(NC(=S)NNC(=O)c2csc(C)c2)c1`, the half-maximal activity concentration (AC50) under setting [2] was 20 µM [rising, partial curve] and the AC50 under setting [1] is 35.5 µM [rising, single point].

With `COc1ccc(N2CCN(CCCNC(=O)c3cc(Nc4ccc(OC)cc4OC)nc4ccccc34)CC2)cc1`, the AC50 under setting [1] is 31.6 µM [rising, single point].

On to `O=[N+]([O-])c1cccnc1N1CCC(c2cc(-c3ccc(Cl)cc3)n[nH]2)CC1`, for which the AC50 is 25.1 µM [falling, single point] under setting [2] and 22.4 µM [falling, partial curve] under setting [1].

Regarding `CC1CCc2c(sc3ncnc(NCCCOC(C)C)c23)C1` (centres undefined), the AC50 runs as follows: under setting [2], 20 µM [rising, partial curve, poor fit]; under setting [1], 22.4 µM [rising, single point].

Regarding `COc1ccc(-c2cn3ccc4ccccc4c3n2)cc1`, the AC50 under setting [1] is 14.1 µM [rising, single point].

`CCOc1cccc(CNCc2cccnc2)c1OCc1ccccc1`: the AC50 by setting is: under setting [2], 0.00316 µM [falling, full curve, poor fit]; under setting [1], 0.00316 µM [falling, full curve, poor fit].

As for `O=c1c2ccccc2sn1-c1cc(S(=O)(=O)N2CCOCC2)ccc1N1CCOCC1`, the AC50 under setting [1] was 31.6 µM [falling, single point].

`Clc1ccc(CSc2nnnn2-c2ccc3c(c2)OCO3)c(Cl)c1`: the AC50 runs as follows: under setting [2], 11.2 µM [rising, partial curve, poor fit]; under setting [1], 20 µM [rising, single point].

Consider `COc1ccc(C(=O)NC(=S)NNC(=O)c2ccc(NC(=O)C(C)C)cc2)cc1`, for which, under setting [1], the AC50 was 12.6 µM [rising, partial curve].

`CC(=O)Nc1ccc(-n2cc(-c3ccccc3)[nH]c2=S)cc1`: the AC50 under setting [2] is 4.47 µM [falling, full curve, poor fit].

`O=C(c1nn(Cc2ccccc2)c(=O)c2ccccc12)N1CCN(c2ccccn2)CC1`: the AC50 under setting [2] is 10 µM [rising, partial curve] and the AC50 under setting [1] is 7.08 µM [rising, partial curve, poor fit].

Turning to `O=C(NCc1cccnc1)C(=O)NCC(c1ccco1)N1CCN(c2ccc(F)cc2)CC1` (centres undefined), the AC50 under setting [1] is 17.8 µM [rising, single point].

Turning to `Cc1cc(C)[n+](C)n1CC(O)Cn1c2ccccc2c2ccccc21` (centres undefined), the AC50 under setting [2] was 0.316 µM [falling, full curve, poor fit].

With `CCn1c2ccccc2c2cc(NC(=O)COc3ccccc3OC)ccc21`, under setting [1], the AC50 was 7.94 µM [rising, partial curve].

As to `CC(C)c1ccc(NC(=O)NC2CCCCC2)cc1`, the AC50 under setting [2] is 35.5 µM [rising, single point].

Take `CCCCOc1ccc(C(=O)Nc2ccc(SC(F)F)cc2)cc1OC`: the AC50 is 0.0501 µM [rising, full curve, poor fit] under setting [2] and 0.0251 µM [rising, full curve, poor fit] under setting [1].

As to `COc1ccc(-n2c(C)cc(C)c(C(C)=O)c2=S)cc1`, the AC50 under setting [1] is 0.0562 µM [falling, full curve, poor fit].

On to `CN(C)c1ncnc2ccc(-c3cccc(C#N)c3)cc12`, for which, under setting [2], the concentration at half-maximal activity (AC50) was 6.31 µM [falling, partial curve, poor fit].

For the compound `O=C(/C=C/c1ccccc1)c1ccccc1`, the AC50 is, setting by setting: under setting [2], 8.91 µM [falling, full curve]; under setting [1], 22.4 µM [falling, partial curve, poor fit].

Take `Cc1csc(NC(=O)NC2(C(F)(F)F)Oc3ccccc3O2)n1`: the half-maximal activity concentration (AC50) under setting [1] is 7.08 µM [rising, partial curve].

In the case of `CC(C)CCNc1nc2c(c(=O)n(Cc3cccc(F)c3)c(=O)n2C)n1C`, the AC50 by setting is: under setting [2], 0.631 µM [rising, full curve, poor fit]; under setting [1], 6.31 µM [rising, partial curve, poor fit].

Take `CN(C)S(=O)(=O)N1CCC(CCCC2CCN(S(=O)(=O)N(C)C)CC2)CC1`: under setting [2], the AC50 was 3.98 µM [rising, single point].

For `Cc1cc(C)cc(OCC(=O)N(Cc2cccs2)c2ccc(Cl)cc2)c1`, under setting [1], the concentration at half-maximal activity (AC50) is 31.6 µM [rising, single point].

Turning to `O=C(NCc1ccco1)c1csc(Nc2ccccc2Cl)n1`, the AC50 under setting [1] is 25.1 µM [rising, single point].

Consider `Fc1ccc(-c2nn(-c3ccccc3Cl)c3c2cnc2ccccc23)cc1`, for which the AC50 is 35.5 µM [falling, single point] under setting [2] and 35.5 µM [falling, single point] under setting [1].
